{"source": "patent US20260167685A1", "about": "(NANJING ANJI BIOTECHNOLOGY CO., LTD, priority 2023, published 2026)", "assay": "general procedure: Fmoc solid-phase peptide synthesis; Fmoc-Thr-wang-resin", "settings": "whole synthesis, 220 nm, scale 1 mmol"}
{"molecule": "micropeptide HMBJ (peptide, listed as Homo sapiens) MEAKLRVLVPAETGISETHDEHETFSLSLGSHSATQMNGVTFPHVTLLSLLLRAGPLHNLFKCSQLSLAPT", "values": [{"measurement": "final HPLC purity", "result": 95.86, "unit": "%"}]}
